Assay results from the supplement of paper PMC10849652.
Some of the results follow.

Amino acid sequences for entries named in this document (tags omitted). A change or cut given only in a name is not applied to a line headed by its entry.
UniProt Q9NZ45: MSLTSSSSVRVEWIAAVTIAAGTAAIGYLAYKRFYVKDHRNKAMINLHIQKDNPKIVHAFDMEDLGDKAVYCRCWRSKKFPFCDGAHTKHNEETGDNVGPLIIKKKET
UniProt Q8WYQ3: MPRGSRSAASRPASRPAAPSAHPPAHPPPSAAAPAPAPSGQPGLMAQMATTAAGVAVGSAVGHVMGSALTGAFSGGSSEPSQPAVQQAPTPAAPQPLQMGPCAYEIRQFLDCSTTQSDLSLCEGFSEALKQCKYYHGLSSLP
UniProt O14647: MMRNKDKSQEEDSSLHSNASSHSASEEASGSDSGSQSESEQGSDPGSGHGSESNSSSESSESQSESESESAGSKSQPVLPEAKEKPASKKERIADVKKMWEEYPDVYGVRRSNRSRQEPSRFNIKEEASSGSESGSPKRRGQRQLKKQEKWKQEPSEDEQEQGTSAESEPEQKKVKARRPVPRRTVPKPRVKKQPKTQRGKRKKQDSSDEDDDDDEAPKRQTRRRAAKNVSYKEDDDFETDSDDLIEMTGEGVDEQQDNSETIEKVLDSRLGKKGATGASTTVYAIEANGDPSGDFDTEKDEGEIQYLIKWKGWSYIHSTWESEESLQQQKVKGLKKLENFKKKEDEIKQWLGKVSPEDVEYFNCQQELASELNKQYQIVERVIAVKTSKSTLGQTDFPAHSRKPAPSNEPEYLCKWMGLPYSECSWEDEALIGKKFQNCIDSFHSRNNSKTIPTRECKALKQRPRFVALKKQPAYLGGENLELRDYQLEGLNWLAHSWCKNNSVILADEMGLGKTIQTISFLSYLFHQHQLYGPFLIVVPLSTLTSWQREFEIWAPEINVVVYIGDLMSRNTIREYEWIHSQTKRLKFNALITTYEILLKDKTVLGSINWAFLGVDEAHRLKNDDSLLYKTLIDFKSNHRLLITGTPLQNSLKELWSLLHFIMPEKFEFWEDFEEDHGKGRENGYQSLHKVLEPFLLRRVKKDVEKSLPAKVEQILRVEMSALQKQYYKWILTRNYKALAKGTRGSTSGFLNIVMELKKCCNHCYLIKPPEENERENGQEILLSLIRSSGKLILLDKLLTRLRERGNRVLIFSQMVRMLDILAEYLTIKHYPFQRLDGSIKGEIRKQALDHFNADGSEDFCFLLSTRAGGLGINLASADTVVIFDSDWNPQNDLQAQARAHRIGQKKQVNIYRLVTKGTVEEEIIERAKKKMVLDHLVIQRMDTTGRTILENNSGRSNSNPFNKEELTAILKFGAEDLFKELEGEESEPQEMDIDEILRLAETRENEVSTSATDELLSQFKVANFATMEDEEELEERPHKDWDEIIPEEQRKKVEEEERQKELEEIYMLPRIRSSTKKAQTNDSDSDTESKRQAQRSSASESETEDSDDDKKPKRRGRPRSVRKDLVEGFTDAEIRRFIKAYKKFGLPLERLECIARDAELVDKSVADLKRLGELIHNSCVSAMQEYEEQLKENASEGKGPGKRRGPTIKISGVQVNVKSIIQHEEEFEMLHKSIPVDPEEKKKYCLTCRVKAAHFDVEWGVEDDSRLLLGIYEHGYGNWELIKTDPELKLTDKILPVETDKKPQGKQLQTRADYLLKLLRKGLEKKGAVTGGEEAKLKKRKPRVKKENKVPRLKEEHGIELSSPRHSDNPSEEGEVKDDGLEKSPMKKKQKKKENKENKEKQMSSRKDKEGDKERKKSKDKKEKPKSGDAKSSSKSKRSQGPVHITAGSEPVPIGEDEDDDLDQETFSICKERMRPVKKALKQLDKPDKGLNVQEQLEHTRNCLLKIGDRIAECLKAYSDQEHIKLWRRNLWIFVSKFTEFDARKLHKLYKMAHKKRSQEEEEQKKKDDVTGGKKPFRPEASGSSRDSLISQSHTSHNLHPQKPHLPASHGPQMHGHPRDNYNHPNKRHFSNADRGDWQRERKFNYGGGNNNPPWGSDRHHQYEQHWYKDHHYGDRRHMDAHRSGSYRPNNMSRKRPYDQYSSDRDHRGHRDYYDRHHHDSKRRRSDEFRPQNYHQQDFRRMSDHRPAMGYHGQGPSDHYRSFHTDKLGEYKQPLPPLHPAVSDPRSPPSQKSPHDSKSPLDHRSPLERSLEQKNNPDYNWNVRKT
UniProt P09496: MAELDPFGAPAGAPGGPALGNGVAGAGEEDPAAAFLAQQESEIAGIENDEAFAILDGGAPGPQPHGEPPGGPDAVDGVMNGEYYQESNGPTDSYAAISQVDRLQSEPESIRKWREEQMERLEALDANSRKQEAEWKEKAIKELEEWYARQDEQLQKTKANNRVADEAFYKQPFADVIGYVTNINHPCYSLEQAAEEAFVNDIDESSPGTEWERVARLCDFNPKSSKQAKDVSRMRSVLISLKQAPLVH
UniProt Q9NY35: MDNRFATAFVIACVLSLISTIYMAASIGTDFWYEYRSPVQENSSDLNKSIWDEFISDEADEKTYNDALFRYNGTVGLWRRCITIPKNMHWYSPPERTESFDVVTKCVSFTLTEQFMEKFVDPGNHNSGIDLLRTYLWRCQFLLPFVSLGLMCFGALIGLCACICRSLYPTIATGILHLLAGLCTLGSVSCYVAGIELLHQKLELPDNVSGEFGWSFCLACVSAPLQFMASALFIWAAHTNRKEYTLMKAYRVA
UniProt I3L2J0: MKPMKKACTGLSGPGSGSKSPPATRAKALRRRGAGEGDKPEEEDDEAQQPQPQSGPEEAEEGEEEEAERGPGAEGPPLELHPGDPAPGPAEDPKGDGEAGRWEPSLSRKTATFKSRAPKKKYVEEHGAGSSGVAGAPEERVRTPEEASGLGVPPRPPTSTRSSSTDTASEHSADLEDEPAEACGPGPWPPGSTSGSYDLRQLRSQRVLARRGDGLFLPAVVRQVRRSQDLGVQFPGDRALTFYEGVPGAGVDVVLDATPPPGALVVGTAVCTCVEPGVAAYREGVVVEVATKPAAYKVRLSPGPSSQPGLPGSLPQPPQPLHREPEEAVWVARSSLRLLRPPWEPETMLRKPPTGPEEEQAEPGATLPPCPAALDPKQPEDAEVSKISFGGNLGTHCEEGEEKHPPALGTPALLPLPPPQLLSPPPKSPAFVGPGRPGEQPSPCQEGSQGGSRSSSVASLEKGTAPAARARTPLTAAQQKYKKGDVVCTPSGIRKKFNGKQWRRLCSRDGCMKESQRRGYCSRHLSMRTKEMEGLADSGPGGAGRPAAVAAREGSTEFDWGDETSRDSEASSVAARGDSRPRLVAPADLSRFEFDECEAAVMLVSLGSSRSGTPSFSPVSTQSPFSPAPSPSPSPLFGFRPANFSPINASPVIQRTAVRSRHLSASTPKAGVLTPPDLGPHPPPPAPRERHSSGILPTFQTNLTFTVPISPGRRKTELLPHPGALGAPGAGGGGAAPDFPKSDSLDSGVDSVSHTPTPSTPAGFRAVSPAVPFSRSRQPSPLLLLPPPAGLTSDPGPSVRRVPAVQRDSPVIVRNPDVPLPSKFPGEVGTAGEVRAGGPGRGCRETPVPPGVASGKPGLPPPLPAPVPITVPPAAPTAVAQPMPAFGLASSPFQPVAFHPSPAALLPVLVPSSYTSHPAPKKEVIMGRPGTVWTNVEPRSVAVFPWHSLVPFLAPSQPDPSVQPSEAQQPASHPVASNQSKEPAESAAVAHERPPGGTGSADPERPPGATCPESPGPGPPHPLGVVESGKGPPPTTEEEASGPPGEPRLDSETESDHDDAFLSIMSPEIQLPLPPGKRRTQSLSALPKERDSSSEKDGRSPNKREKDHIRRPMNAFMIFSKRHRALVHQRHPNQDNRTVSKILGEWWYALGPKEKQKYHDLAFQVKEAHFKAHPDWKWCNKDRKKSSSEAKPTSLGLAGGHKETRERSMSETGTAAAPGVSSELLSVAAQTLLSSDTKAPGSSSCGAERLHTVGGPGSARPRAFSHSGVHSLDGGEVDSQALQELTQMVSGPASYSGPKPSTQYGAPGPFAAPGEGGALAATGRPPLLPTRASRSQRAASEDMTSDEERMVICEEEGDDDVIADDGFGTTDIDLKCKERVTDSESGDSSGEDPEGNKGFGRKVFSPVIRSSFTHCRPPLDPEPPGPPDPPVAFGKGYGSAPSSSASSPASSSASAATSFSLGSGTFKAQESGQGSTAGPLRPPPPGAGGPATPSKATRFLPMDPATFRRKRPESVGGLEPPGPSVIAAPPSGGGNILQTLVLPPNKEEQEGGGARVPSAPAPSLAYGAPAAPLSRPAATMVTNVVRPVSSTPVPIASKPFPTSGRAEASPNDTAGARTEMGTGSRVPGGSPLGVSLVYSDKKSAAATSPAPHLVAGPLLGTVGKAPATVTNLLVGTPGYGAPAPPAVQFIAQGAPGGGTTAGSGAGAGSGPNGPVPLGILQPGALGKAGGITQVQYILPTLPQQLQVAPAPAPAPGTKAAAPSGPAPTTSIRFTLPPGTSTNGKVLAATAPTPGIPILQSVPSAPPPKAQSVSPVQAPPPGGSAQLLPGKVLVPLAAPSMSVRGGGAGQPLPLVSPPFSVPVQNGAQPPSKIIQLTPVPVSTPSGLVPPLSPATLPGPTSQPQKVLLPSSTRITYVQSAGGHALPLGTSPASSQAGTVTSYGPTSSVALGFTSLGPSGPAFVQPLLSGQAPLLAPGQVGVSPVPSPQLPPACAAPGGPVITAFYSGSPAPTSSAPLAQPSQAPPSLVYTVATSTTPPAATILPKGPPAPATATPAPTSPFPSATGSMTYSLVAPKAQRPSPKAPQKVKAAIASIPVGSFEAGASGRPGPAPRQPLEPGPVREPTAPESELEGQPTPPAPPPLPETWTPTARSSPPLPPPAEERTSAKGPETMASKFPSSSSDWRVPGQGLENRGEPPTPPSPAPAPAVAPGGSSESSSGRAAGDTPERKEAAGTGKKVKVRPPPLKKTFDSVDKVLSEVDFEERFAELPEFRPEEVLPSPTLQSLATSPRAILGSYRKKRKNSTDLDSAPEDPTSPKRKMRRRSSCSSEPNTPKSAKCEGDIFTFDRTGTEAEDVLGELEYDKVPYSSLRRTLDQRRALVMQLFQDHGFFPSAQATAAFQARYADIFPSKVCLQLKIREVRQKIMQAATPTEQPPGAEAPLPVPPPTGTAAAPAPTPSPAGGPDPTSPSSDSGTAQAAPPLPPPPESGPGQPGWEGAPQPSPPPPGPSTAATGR
UniProt O76071: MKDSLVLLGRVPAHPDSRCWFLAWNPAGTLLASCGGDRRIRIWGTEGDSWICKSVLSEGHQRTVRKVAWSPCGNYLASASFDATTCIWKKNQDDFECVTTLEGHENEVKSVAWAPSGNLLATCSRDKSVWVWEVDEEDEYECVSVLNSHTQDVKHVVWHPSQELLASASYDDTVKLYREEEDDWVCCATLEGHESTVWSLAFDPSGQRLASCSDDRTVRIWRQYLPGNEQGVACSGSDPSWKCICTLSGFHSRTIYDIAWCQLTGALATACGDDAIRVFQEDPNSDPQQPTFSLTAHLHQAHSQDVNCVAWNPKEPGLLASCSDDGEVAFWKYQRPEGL
UniProt Q8IWX8: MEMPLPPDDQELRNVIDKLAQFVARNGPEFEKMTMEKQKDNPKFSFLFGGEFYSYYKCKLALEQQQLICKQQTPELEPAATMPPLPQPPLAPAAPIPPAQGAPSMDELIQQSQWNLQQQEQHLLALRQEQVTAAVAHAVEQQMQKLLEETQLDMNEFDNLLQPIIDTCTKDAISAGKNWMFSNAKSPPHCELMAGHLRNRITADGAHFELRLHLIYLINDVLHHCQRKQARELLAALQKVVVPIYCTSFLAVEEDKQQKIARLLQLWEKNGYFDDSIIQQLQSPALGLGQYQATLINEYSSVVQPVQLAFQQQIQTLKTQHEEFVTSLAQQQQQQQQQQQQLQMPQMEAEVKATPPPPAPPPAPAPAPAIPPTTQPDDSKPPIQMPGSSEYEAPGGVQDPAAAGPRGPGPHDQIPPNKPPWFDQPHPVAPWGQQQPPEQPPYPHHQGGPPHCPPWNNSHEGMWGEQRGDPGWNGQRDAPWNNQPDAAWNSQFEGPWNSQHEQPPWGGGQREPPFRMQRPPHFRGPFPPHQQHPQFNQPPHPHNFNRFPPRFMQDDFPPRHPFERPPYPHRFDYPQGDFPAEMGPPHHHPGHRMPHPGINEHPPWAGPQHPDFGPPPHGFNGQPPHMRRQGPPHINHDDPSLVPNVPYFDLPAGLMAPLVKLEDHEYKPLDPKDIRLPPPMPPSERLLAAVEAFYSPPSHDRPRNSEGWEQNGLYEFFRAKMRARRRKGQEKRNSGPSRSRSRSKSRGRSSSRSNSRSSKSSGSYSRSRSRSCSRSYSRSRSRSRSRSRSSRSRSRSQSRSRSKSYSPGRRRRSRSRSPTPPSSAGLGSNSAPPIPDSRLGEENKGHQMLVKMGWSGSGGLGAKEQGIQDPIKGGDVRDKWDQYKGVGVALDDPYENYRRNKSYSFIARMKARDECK
UniProt P0C7P0: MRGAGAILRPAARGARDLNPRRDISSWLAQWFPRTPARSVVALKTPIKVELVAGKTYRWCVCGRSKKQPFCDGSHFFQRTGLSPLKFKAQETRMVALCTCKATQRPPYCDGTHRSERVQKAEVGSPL

How the values were obtained:
Test in all cases: log2 fold change, soluble protein after heating vs DMSO (PISA); higher = thermal stabilisation; K562 lysate, 10 uM; active = over 0.2 and 3.5 SD of the protein, either way, in both replicates (recomputed)
[1] = compound: NCC(=O)Nc1ccc(-n2nc(C(F)(F)F)cc2-c2ccc3c(ccc4ccccc43)c2)cc1
Procedure, shortened: (§1)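 Soluble protein was defined as the supernatant remaining after 21,000xg for 90 min, following pooling of heated aliquots and adjustment to 0.5% NP-40 at 4°C. Before that, crude K562 extract at 1 mg/mL protein in PBS pH 7.4 with 1 mM MgCl2 was treated with 10 μM compound for 30 min and heated for 3 min across 48°C-58°C. Quantification used TMTpro 16plex LC-MS/MS with channel sums equalised, and values are log-two fold changes in thermal stability relative to solvent controls from duplicates.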

vorinostat = compound: O=C(CCCCCCC(=O)Nc1ccccc1)NO [vorinostat]
Procedure, shortened: as §1

silmitasertib = compound: O=C(O)c1ccc2c(c1)nc(Nc1cccc(Cl)c1)c1ccncc12 [silmitasertib]
Procedure, shortened: as §1

[2] = compound: O=C1NC(=O)C(c2cnc3ccccn23)=C1c1cn2c3c(cc(F)cc13)CN(C(=O)N1CCCCC1)CC2
Procedure, shortened: as §1

entospletinib = compound: c1cn2cc(-c3ccc4cn[nH]c4c3)nc(Nc3ccc(N4CCOCC4)cc3)c2n1 [entospletinib]
Procedure, shortened: as §1

Row | Target | log2 fold change [1] | log2 fold change (vorinostat) | log2 fold change (silmitasertib) | log2 fold change [2] | log2 fold change (entospletinib)
1 | CISD1 (UniProt Q9NZ45) | inactive: 0 | inactive: 0.144 | inactive: -0.04 | inactive: 0.024 | inactive: -0.028
2 | CLYBL (UniProt Q8N0X4) | inactive: 0.023 |  |  | inactive: 0.15 | inactive: -0.044
3 | CHCHD10 (UniProt Q8WYQ3) | inactive: 0.029 | inactive: 0.034 | inactive: 0.036 |  | inactive: -0.122
4 | CHD2 (UniProt O14647) | inactive: 0.114 |  |  | inactive: 0.039 | inactive: -0.02
5 | CLTA isoform 2 (UniProt P09496) | inactive: 0.061 | inactive: 0.196 | inactive: 0.131 | inactive: 0.004 | inactive: 0.083
6 | CLDND1 (UniProt Q9NY35) | inactive: -0.053 | inactive: 0.04 | inactive: 0.014 | inactive: -0.115 | inactive: 0.114
7 | CHMP7 (UniProt Q8WUX9) | inactive: -0.013 | inactive: -0.063 | inactive: 0.022 | inactive: -0.003 | inactive: 0.007
8 | CIC (UniProt I3L2J0) | inactive: -0.002 | inactive: -0.108 | inactive: -0.011 | inactive: 0.075 | inactive: 0.033
9 | CIAO1 (UniProt O76071) | inactive: 0.024 | inactive: 0.014 | inactive: -0.019 | inactive: 0.058 | inactive: -0.035
10 | CLINT1 (UniProt Q14677) | inactive: -0.147 |  |  | inactive: -0.127 | inactive: 0.077
11 | CHERP (UniProt Q8IWX8) | inactive: -0.014 | inactive: -0.166 | inactive: 0.015 | inactive: -0.048 | inactive: -0.009
12 | CISD3 (UniProt P0C7P0) | inactive: 0.055 | inactive: 0.094 | inactive: -0.017 | inactive: -0.057 | inactive: -0.029
13 | CLASP1 (UniProt Q7Z460) | inactive: 0.018 | active: -0.317 | inactive: -0.015 | inactive: -0.022 | inactive: 0.029

At a glance, part of the list above.
Row | Target | log2 fold change [1] | log2 fold change (vorinostat) | log2 fold change (silmitasertib) | log2 fold change [2] | log2 fold change (entospletinib)
10 | CLINT1 (UniProt Q14677) | inactive: -0.147 |  |  | inactive: -0.127 | inactive: 0.077
11 | CHERP (UniProt Q8IWX8) | inactive: -0.014 | inactive: -0.166 | inactive: 0.015 | inactive: -0.048 | inactive: -0.009
